Results taken from PubChem BioAssay AID493014 (National Center for Advancing Translational Sciences (NCATS), 2011).
“And” between values parts separate entries of the source, which are not always exact repeats. Equal values may be shown once. Screen size: about 340,000 compounds; about 170 (0.05%) were called active. Inconclusive results, whose numbers are uncertain, are shown with a selection of clear calls. Calls follow the shape of the dose curve; as a rule, active = well fitted inhibition curve with a large enough effect in the signal ratio, with a control signal flat (not every such curve was filed as active); inconclusive = small, poorly fitted or top-dose-only effect, or effect the other way, or a change in a side signal; inactive = flat fitted curve, though single readings scatter; the % refers to the signal ratio. Potencies of inconclusive entries are doubtful fits and often do not repeat.

Assay: qHTS Assay to Find Inhibitors of Chronic Active B-Cell Receptor Signaling;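 as to activity change, negative = inhibition: plate controls were basal doxycycline-induced cells for no effect and cells given 10 µM MG132 for full effect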
Conditions: ABC-DLBCL IkBa-CBG/CBR reporter, luminescence ratio (green luciferase fused to IkBa over red control in TMD8 lymphoma cells), 4 h; activity change, negative = inhibition: at 46.1 µM (top of the series) unless noted
Outline: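 Doxycycline induced both beetle luciferases in TMD8 lymphoma cells; IKK-driven degradation limits the IkappaBalpha-fused green signal, while red luminescence normalises for cell number and nonspecific effects. Compounds tested up to 46 uM, 4 hrs.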
Potency is read from the fitted curve at half-maximal effect.

Row | Structure (SMILES) | activity change, negative = inhibition | Potency
1 | O=C(CCc1ccccc1)N1CCN(c2ccc([N+](=O)[O-])cc2)CC1 | inconclusive: 2.98% | –
2 | COc1cccc(OC)c1-c1nn2c(-c3ccco3)nnc2s1 | inconclusive: -1.94% | –
3 | CNS(=O)(=O)c1cccc(C(=O)OCC(=O)c2cc(C)n(CC3CCCO3)c2C)c1 (stereo not drawn) | inconclusive: 1.33% | –
4 | Cc1ccc(C[n+]2cc(-c3ccc(Cl)cc3)n3c2CCC3)cc1 | inconclusive: -26.9% | –
5 | O=C(Nc1ccc(N2CCOCC2)c(Cl)c1)c1ccco1 | – | inconclusive: 23.1 µM [falling, single point]
6 | O=C(NCc1ccccc1)c1cc(-c2ccncc2)nc2ccccc12 | inactive | –
7 | CCN(CCCNc1ncnc2nc[nH]c12)c1cccc(C)c1 | inconclusive: -3.17% | –
8 | COc1cccc(C2(O)CCN(C(=O)C(C)C)CC2)c1 | inconclusive: 7.89% | –
9 | O=S(=O)(c1ccc2c(c1)OCCO2)C1CCC(S(=O)(=O)c2c(F)cccc2F)CC1 (stereo not drawn) | inconclusive: 0.676% | –
10 | C[C@]12c3[nH]c4ccc(Cl)cc4c3CCN1C(=O)[C@@H](CC(=O)NCc1ccco1)C[C@@H]2C(=O)N1CCCCC1 | – | inconclusive: 14.6 µM [falling, single point]
11 | O=C(NC(=S)N1CCCc2ccccc21)c1ccc(Cl)cc1 | inconclusive: -21.6% | –
12 | Cc1cc2c(=O)oc(-c3ccc(Br)cc3)nc2s1 | – | inconclusive: 15.8 µM [falling, partial curve]
13 | Cc1ccc(NCc2cccnc2)cc1 | inconclusive: -20.6% | –
14 | CCOC(=O)/C(C#N)=N/Nc1ccccc1OC | inconclusive: 1.61% | –
15 | COc1ccc(NC(=O)CN(C)C(=O)c2c(C)nn(Cc3ccccc3)c2C)cc1 | inactive | –
16 | Cc1[nH]n(-c2ccccc2)c(=O)c1C=NC1CCCCC1 | inconclusive: -15.1% | –
17 | COC(=O)c1ccccc1NC(=O)CN1CCC(n2nnc3cc(F)ccc32)CC1 | – | inconclusive: 20.6 µM [falling, single point]
18 | CC(=O)Nc1cc(C(=O)NCc2ccccc2)ccc1Sc1ccc(C)cc1 | inactive | –
19 | CCn1c(-c2cc(-c3ccc(OC(C)C)cc3)nc3ccccc23)n[nH]c1=S | inconclusive: -15.9% | –
20 | C=COC(=O)CSc1snc(SCC(=O)OC)c1C#N | inconclusive: 15.9% | –
21 | C/C(Cl)=C\COc1cc(C)nc2c(Br)cccc12 | inconclusive: 1.62% | –
22 | CCn1c(=S)[nH]c2cc(S(=O)(=O)N3CCCCC3)ccc21 | – | inconclusive: 2.31 µM [falling, full curve]
23 | CC1CN(C(=O)COC(=O)c2ccc(F)cc2Cl)CC(C)O1 (stereo not drawn) | inconclusive: 6.17% | –
24 | C=CCOc1ccc(/C=N/NC(=O)c2cc3c(OC)cc(OC)cc3[nH]2)cc1 | inconclusive: 0.289% | –
25 | O=C(c1cc2cc(Br)ccc2o1)N1CCOCC1 | inconclusive: 3.41% | –
26 | C=CCN(c1ccc(OC)cc1)S(=O)(=O)c1ccc(Cl)c(C(=O)OCC(=O)NC2CC2)c1 | inconclusive: -22.1% | –

Row | Structure (SMILES) | activity change, negative = inhibition | Potency
27 | Cc1cc(N2CCCC2)ccc1/C=C1\NC(=S)N(C)C1=O | inconclusive: -25.2% | –
28 | COc1cc2c(cc1OC)C(/C(C#N)=N\O)=NC(C)(C)C2 | inconclusive: -11.3% | –
29 | C=CCNC(=O)/C(C#N)=C/c1ccc2c(c1)OCCO2 | inconclusive: -25.6% | –
30 | Cc1ccc(Cn2c(N)nc3ccccc32)cc1 | inactive | –
31 | CC(=O)Nc1ccc(NC2=C/C(=N/S(=O)(=O)c3cccs3)c3ccccc3C2=O)cc1 | – | inconclusive: 5.62 µM [falling, single point]
32 | C[C@@H]1C[C@H]2[C@@H]3CCC4=CC(=O)C=C[C@]4(C)[C@@]3(F)[C@@H](O)C[C@]2(C)[C@@]1(O)C(=O)CO | inconclusive: -0.861% | –
33 | CN(C)c1ccc(C2C3C(=O)N(c4ccc(C(=O)O)cc4)C(=O)C3ON2c2ccccc2)cc1 (stereo not drawn) | – | inconclusive: 35.5 µM [falling, single point]
34 | O=C(NCC1CCCO1)c1cc2nc(-c3ccco3)cc(C(F)(F)Cl)n2n1 (stereo not drawn) | inconclusive: -1.23% | –
35 | Cc1oncc1-c1csc(-c2ccccc2)n1 | inconclusive: 5.52% | –
36 | O=c1c(-c2ccccc2)coc2cc(O)ccc12 | – | inconclusive: 7.08 µM [activator, partial curve]
37 | Cc1cc(NCCCN)nc(-c2ccccc2O)n1 | inconclusive: 13.7% | –
38 | COc1cc(NC(=O)COc2ccc(-n3ccnc3)cc2)cc(OC)c1 | inactive | –
39 | O=C(c1cc(-c2ccc(Br)cc2)on1)N1CCCC1 | – | inconclusive: 3.16 µM [falling, full curve, poor fit]
40 | CC1CCc2nc(NC(=O)CSc3nc4ccccc4o3)sc2C1 (stereo not drawn) | inconclusive: 4.45% | –
41 | O=C(CCCCCN1C(=O)c2cccc3cccc(c23)C1=O)NCc1cccnc1 | – | inconclusive: 2.82 µM [falling, full curve, poor fit]
42 | COc1ccc(/C=N/NC(=O)c2cccnc2)c(C(=O)O)c1OC | inactive | –
43 | Cc1nn2c(C(F)(F)F)cc(-c3ccc(Cl)cc3)nc2c1C(=O)N1CCOCC1 | inconclusive: 5.84% | –
44 | C=CCNC(=S)N1CCC(Cc2ccccc2)CC1 | inconclusive: -3.13% | –
45 | CCc1ccc(NC(=O)CSC2=Nc3ccccc3C3=NC(CCC(=O)NCc4ccccc4OC)C(=O)N23)cc1 (stereo not drawn) | inactive | –
46 | COc1ccc(C2C3=C(CCCC3=O)Nc3ccc4ncccc4c32)cc1OC (stereo not drawn) | – | inconclusive: 8.91 µM [falling, partial curve]
47 | O=C(CN1C(=O)c2ccccc2S1(=O)=O)c1ccc(OC(F)F)cc1 | inactive | –
48 | Cc1ccc(-n2ncc3c(NNC(=O)c4cccs4)ncnc32)cc1 | inactive | –
49 | CCOc1cc(/C=N/NC(=S)Nc2ccccc2C(F)(F)F)ccc1OCC(=O)N1CCOCC1 | – | inconclusive: 20.6 µM [falling, single point]
50 | O=C(Nc1nc2ccsc2c(=O)s1)c1ccco1 | inconclusive: -5.83% | –
51 | O=C(CCN1C(=O)S/C(=C\c2ccccc2)C1=O)NC1CCS(=O)(=O)C1 (stereo not drawn) | inconclusive: -15.1% | –
52 | COc1ccc(/C=C2\SC(=Nc3ccccc3OC)NC2=O)cc1 | – | inconclusive: 14.1 µM [falling, partial curve, poor fit]

Three entries drawn at random from the list so far, as already listed:
Row | Structure (SMILES) | activity change, negative = inhibition | Potency
27 | Cc1cc(N2CCCC2)ccc1/C=C1\NC(=S)N(C)C1=O | inconclusive: -25.2% | –
35 | Cc1oncc1-c1csc(-c2ccccc2)n1 | inconclusive: 5.52% | –
47 | O=C(CN1C(=O)c2ccccc2S1(=O)=O)c1ccc(OC(F)F)cc1 | inactive | –

(next part)

Row | Structure (SMILES) | activity change, negative = inhibition | Potency
53 | CCOC(=O)c1ccc(NC(=O)c2c(O)c3ccccc3n(C)c2=O)cc1 | – | inconclusive: 14.1 µM [falling, partial curve, poor fit]
54 | CCOC(=O)c1ccc(Nc2cc(C)nc(-c3ccccc3O)n2)cc1 | – | inconclusive: 11.6 µM [falling, partial curve]
55 | CCCCC(=O)Nc1ccc(C(=O)N2CCN(c3ccccc3OC)CC2)cc1 | inconclusive: -2.38% | –
56 | CN(N=Nc1cccc([N+](=O)[O-])c1)c1ccccc1 | inconclusive: 3.81% | –
57 | COCCNC(=O)c1cn(C)c2ccccc2c1=O | inconclusive: 3.16% | –
58 | CSc1nnc(-c2ccccc2N=Cc2c(C)[nH]n(-c3ccccc3)c2=O)c(=O)[nH]1 | inactive | –
59 | COc1ccc(NC2=C(Cl)C(=O)N(CCc3ccccc3)C2=O)c(OC)c1 | inactive | –
60 | CNC(=O)c1ccc(Nc2nc(-c3ccccc3)nc3ccccc23)cc1 | – | inconclusive: 17.8 µM [falling, single point]
61 | Cc1nnc(SC(C)C(=O)N2CCc3ccccc32)s1 (stereo not drawn) | – | inconclusive: 29.1 µM [falling, single point]
62 | COc1ccc(S(=O)(=O)N2CCN(C(=O)c3cc(C)oc3C)CC2)cc1OC | inconclusive: 1.79% | –
63 | O=C(c1ccc2ccccc2c1)N1CCN(Cc2ccccc2)CC1 | inconclusive: -4.33% | –
64 | CCCCCCCNC(=O)C1(CC2CC(c3ccccc3)=NO2)CCN(C(=O)c2ccccc2)CC1 (stereo not drawn) | inconclusive: -4.48% | –
65 | Cc1ccc(/C(N)=N/OC(=O)c2ccc(C)cc2Cl)cc1 | inconclusive: 6.56% | –
66 | Fc1ccc(-c2nc(-c3cccs3)[nH]c2-c2ccc(F)cc2)cc1 | inconclusive: 9.24% | –
67 | O=C(NC1CCCCC1)c1noc2c1CCCCC2 | – | inconclusive: 18.4 µM [falling, partial curve]
68 | O=C(Nc1ncc(S(=O)(=O)c2ccc([N+](=O)[O-])cc2)s1)c1cccnc1 | inconclusive: -0.663% | –
69 | O=C(CSc1ncnc2c1cnn2-c1ccccc1)Nc1ccc2c(c1)OCO2 | inconclusive: -0.499% | –
70 | COc1cc(SC)ccc1C(=O)Nc1ccc2ncccc2c1 | – | inconclusive: 20 µM [falling, partial curve, poor fit]
71 | Cn1nc(C(=O)NNC(=O)c2ccccc2Br)c2ccccc2c1=O | – | inconclusive: 2.31 µM [falling, partial curve]
72 | Cc1cc(=O)c(C(=O)O)cn1-c1ccc(C(C)C)cc1 | inconclusive: 3.84% | –
73 | Cc1ccc(OCc2cc(C(=O)N3CCN(CC(=O)NC(C)C)CC3)no2)cn1 | inconclusive: -4.23% | –
74 | O=C(Nc1ccc(OC(F)(F)F)cc1)N1CCN(c2ccnc3cc(Cl)ccc23)CC1 | inconclusive: 8.32% | –
75 | CCCCN(CCCC)C(=O)c1c[nH]c2ccc(S(=O)(=O)Nc3cccc(Cl)c3C)cc2c1=O | inconclusive: 0.0448% | –
76 | Cc1ccc(C(=O)Nc2cnc3ccccn3c2=O)cc1 | – | inconclusive: 20.6 µM [falling, partial curve] and inconclusive: 22.4 µM [falling, partial curve]
77 | CCOC(=O)C1=C(N)Oc2cc(O)ccc2C1c1cccc([N+](=O)[O-])c1 (stereo not drawn) | – | inconclusive: 25.1 µM [falling, single point]
78 | Cc1cc(OCCCCN2C(=O)NC(C)(C)C2=O)ccc1[N+](=O)[O-] | inconclusive: -11.5% | –
